# Laboratory results taken from PubChem BioAssay AID588590 (National Center for Advancing Translational Sciences (NCATS), 2011).
# Sequences of proteins named here, by UniProt entry; tags and fusion partners are left off. A change or cut given only in a name is not applied to a line headed by its entry.
# UniProt Q9UNA4: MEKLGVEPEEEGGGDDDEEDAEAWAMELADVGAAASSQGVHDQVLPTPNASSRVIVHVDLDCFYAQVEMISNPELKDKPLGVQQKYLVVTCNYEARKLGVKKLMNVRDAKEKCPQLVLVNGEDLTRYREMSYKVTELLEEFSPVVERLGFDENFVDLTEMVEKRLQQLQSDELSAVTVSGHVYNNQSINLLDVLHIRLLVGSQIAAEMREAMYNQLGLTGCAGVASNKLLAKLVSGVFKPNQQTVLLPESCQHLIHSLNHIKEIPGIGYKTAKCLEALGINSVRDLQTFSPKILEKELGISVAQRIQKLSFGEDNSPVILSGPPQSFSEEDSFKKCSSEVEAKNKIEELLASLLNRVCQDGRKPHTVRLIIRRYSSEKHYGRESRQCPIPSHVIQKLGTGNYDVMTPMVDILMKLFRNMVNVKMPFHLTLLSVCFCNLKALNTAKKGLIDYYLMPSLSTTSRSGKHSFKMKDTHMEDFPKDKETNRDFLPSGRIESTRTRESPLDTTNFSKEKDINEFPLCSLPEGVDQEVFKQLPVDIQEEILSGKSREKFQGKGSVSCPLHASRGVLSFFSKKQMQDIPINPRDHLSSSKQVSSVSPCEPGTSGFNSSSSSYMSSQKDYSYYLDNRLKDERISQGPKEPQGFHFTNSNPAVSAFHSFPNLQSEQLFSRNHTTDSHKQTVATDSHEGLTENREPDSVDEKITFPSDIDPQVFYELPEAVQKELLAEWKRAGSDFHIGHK
# Where “and” joins values, the source holds several entries; their conditions need not be identical. Equal entries are not always repeated. In all, about 390,000 compounds went through this assay and about 4,000 (1%) were called active. This list was built around the results that the source calls inconclusive (neither active nor inactive); the mix of calls is not that of the screen. The call rests on the fitted dose curve; in most records, active means well fitted inhibition curve with a large enough effect; inconclusive means small, poorly fitted or top-dose-only effect, or another doubt; inactive means no such curve, though single readings can be large or run the other way. A potency beside an inconclusive call is a rough fit, not a confirmed value.
# Biological target: DNA polymerase iota (Homo sapiens) (UniProt Q9UNA4)
# Assay: qHTS for Inhibitors of Polymerase Iota
# Conditions: Pol iota fluorescent replication assay, 10 min; series mostly up to 115 µM; activity, negative = inhibition: at the top concentration
# In short: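 Fluorescent replication assay read twice, at 0 min and 10 min after adding 50 nM (final) substrate. Enzyme (10 nM) and compounds were first incubated 15 min at room temperature; enzyme-free buffer wells were negative controls.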
# Potency means the concentration at half of the fitted maximal effect.
SMILES,Potency,"activity, negative = inhibition"
CCOc1nc(NC(=O)NS(=O)(=O)Oc2ccc(Cl)cc2)nc(-c2ccccc2)n1,"inconclusive: 3.98 µM [inhibitor, partial curve, poor fit]",
COCCN=c1scc(-c2cccs2)n1/N=C/c1ccc(O)c(O)c1O,"inconclusive: 17.8 µM [inhibitor, partial curve, poor fit]",
CCOc1ccc2oc(C(=O)Nc3ccc4c(c3)OCO4)c(C)c2c1,"inconclusive: 31.6 µM [inhibitor, full curve]",
O=C(Nc1ccc(O)c2c(=O)cc(-c3ccccc3Cl)oc12)c1ccc(Cl)c(Cl)c1,"inactive and inconclusive: 89.1 µM [inhibitor, partial curve, poor fit]",
CC1=C(C(=O)O)N2C(=O)C(NC(=O)c3nn(C)c(C)c3Cl)C2SC1 (configuration not stated),"inconclusive: 44.7 µM [inhibitor, partial curve]",
NC(=O)c1c(N)sc2c1CCC2,"inconclusive: 20 µM [inhibitor, full curve, poor fit]",
COc1ccc(CCNC(=O)CCn2c(=O)c3ccccc3n(CC(=O)Nc3cccc(C)c3)c2=O)cc1OC,"inconclusive: 79.4 µM [inhibitor, single point]",
CCOC(=O)COc1c(Br)cc(C2NC(=O)NC(C)=C2C(C)=O)cc1OC (configuration not stated),"inconclusive: 50.1 µM [inhibitor, partial curve]",
NC1=NC(=O)/C(=C/c2cc(Br)c(O)c(Br)c2)S1,"inconclusive: 8.91 µM [inhibitor, partial curve, poor fit]",
Cc1ccccc1-n1c(Cc2cccs2)n[nH]c1=S,"inconclusive: 89.1 µM [inhibitor, single point]",
COc1ccc(S(=O)(=O)N(C)CC(=O)N2CCC(C)CC2)cc1Cl,"inconclusive: 100 µM [inhibitor, partial curve, poor fit]",
Cc1cccc(N2C(S)=C(C#N)C(=O)NC2c2ccco2)c1 (configuration not stated),"inconclusive: 39.8 µM [inhibitor, single point]",
CCc1ccccc1N1CC(c2nc3ccccc3n2CC(C)C)CC1=O (configuration not stated),,inactive: 8.21%
CCC(C)NC(=O)C1CCN(C(=O)c2cc3sccc3n2Cc2ccc(Cl)cc2)CC1 (configuration not stated),"inconclusive: 79.4 µM [inhibitor, single point]",
Cc1csc(N(C)C(=O)CSc2nnc(COc3cccc4ccccc34)o2)n1,,inactive: -4.47%
C[C@@H](OC(=O)c1[nH]cnc1C(=O)NCc1ccc(CNC(=O)OC(C)(C)C)cc1)c1ccccc1,"inconclusive: 79.4 µM [inhibitor, single point]",
CC(C)(C)C1CCc2nc(NC(=O)COc3ccc(F)cc3)sc2C1 (configuration not stated),"inconclusive: 100 µM [inhibitor, single point]",
CCCCN(CC)CCCn1cnc2c([nH]c3ccc(Cl)cc32)c1=O,"inconclusive: 100 µM [inhibitor, single point]",
O=C(COc1ccc(S(=O)(=O)N2CCCC2)cc1)NCCC1=CCCCC1,"inconclusive: 79.4 µM [inhibitor, partial curve]",
Cc1ccn2c(NCc3ccco3)c(-c3ccccc3)nc2c1,"inconclusive: 79.4 µM [inhibitor, partial curve]",
Cc1cccc(C)c1OCC(=O)N/N=C/C=C/c1ccco1,,inactive: -2.85%

SMILES,Potency,"activity, negative = inhibition"
Cc1cc(SCC(=O)c2cccs2)n2nc(C)c(-c3ccccc3)c2n1,"inconclusive: 112 µM [inhibitor, single point]",
COc1ccc(C(=O)NCCS(=O)(=O)N2CCN(Cc3ccccc3)CC2)cc1,"inconclusive: 89.1 µM [inhibitor, partial curve, poor fit]",
O=C(Nc1ccc2c(c1)CCC2)C1COc2ccccc2O1 (configuration not stated),"inconclusive: 79.4 µM [inhibitor, partial curve]",
OC(COc1ccc(OCC(O)CN2CCCCC2)cc1)CN1CCCCC1 (configuration not stated),"inconclusive: 1 µM [inhibitor, full curve, poor fit]",
CCn1cc(/C=C/C(=O)NCc2c(C)nn(C)c2C)cn1,"inconclusive: 20 µM [inhibitor, partial curve, poor fit]",
CCCC(=O)Nc1nnc(SCc2cc(=O)c3cc(C)ccc3[nH]2)s1,"inconclusive: 89.1 µM [inhibitor, single point]",
Cc1cc(C)c2c(=O)n(CC(=O)Nc3ccc(Br)c(C)c3)sc2n1,"inconclusive: 17.8 µM [inhibitor, partial curve, poor fit]",
Cc1ccc(C)c(N2CCN(C(=O)c3cc(S(=O)(=O)N4CCCCC4)cn3C)CC2)c1,"inconclusive: 89.1 µM [inhibitor, partial curve, poor fit]",
Cc1cc(C(C2C(=O)CC(C)(C)CC2=O)C2C(=O)CC(C)(C)CC2=O)cc(C)c1OC(F)F,"inconclusive: 50.1 µM [inhibitor, partial curve, poor fit]",
COc1ccc(NC(=O)c2cc(-c3cccnc3)nc3c(C)c(C)ccc23)c(OC)c1,"inconclusive: 25.1 µM [inhibitor, single point]",
COc1ccccc1C(=O)NCCC(=O)N1CC=C(c2ccccc2)CC1,,inactive: 2.71%
COc1ccccc1CCNC(=O)CSc1ccc(-c2ccco2)nn1,"inconclusive: 20 µM [inhibitor, single point]",
COc1cccc(C(=O)NCC(=O)OCC(=O)Nc2ncc(Cl)cc2Cl)c1,"inconclusive: 28.2 µM [inhibitor, partial curve, poor fit]",
CCC(CO)Oc1cc(NC(=O)c2ccccc2N)c2ncn(C(C)C)c2c1 (configuration not stated),"inconclusive: 35.5 µM [inhibitor, single point]",
O=C(N/N=C/C(Br)=C/c1ccccc1)c1cnccn1,"inconclusive: 20 µM [inhibitor, single point]",
COc1ccc(NC(=O)COc2nsnc2N2CCOCC2)cc1,"inconclusive: 4.47 µM [inhibitor, partial curve, poor fit]",
NC(=O)CSCc1nc2ccccc2s1,"inconclusive: 5.01 µM [inhibitor, full curve, poor fit]",
CCc1ccccc1NC(=O)Cn1nnc(C(=O)NCc2cccc(OC)c2)c1N,"inconclusive: 89.1 µM [inhibitor, partial curve, poor fit] and inconclusive: 70.8 µM [inhibitor, partial curve, poor fit]",
CC1CCc2nc3ncn(Cc4cccc(F)c4)c(=O)c3cc2C1 (configuration not stated),,inactive: 70.9%
Cc1nc(SCC(=O)NC(=O)NCc2ccco2)nc(C)c1C,"inconclusive: 20 µM [inhibitor, full curve]",
COc1cccc(NC(=O)COC(=O)c2ccc(S(=O)(=O)NCc3ccco3)cc2)c1,"inconclusive: 12.6 µM [inhibitor, full curve, poor fit]",

# Quoted from the entries so far, two compounds:
SMILES,Potency,"activity, negative = inhibition"
O=C(N/N=C/C(Br)=C/c1ccccc1)c1cnccn1,"inconclusive: 20 µM [inhibitor, single point]",
COc1ccc(NC(=O)COc2nsnc2N2CCOCC2)cc1,"inconclusive: 4.47 µM [inhibitor, partial curve, poor fit]",

# More results:

SMILES,Potency,"activity, negative = inhibition"
Cc1cc2c(cc(C(=O)OCC(=O)NC3CCCCC3)n2C)o1,"inconclusive: 44.7 µM [inhibitor, partial curve, poor fit]",
Cc1ccc(C)n1-c1ccc(C(=O)N/N=C/c2ccncc2)cc1,"inconclusive: 39.8 µM [inhibitor, single point]",
Cc1ccc(CCNC(=O)CCCn2c(=O)c3cccn3c3ccc(F)cc32)cc1,,inactive: 10.1%
Cc1cnc(C=NNC(N)=S)c2cccc(N)c12,active: 2.24 µM,
Cc1cc(C(=O)OCC(=O)NCc2ccco2)c(C)o1,"inconclusive: 50.1 µM [inhibitor, partial curve]",
COc1ccc(NC(=O)CN2C(=O)C(=O)c3ccccc32)c(OC)c1,,inactive: 29.2%
CN(Cc1ccccc1)c1nc2c(S(=O)(=O)c3ccccc3)nnn2c2ccsc12,,inactive: 17.7%
N#Cc1c(Nc2cccc(F)c2)sc2c(O)cc(=O)[nH]c12,"inconclusive: 7.08 µM [inhibitor, partial curve]",
CCOC(=O)C1CCN(c2nc3ccccc3nc2C(C#N)C(=O)OC(C)C)CC1 (configuration not stated),"inconclusive: 17.8 µM [inhibitor, partial curve, poor fit]",
Cc1ccc(-c2nc(-c3cccs3)c(-c3cccs3)[nH]2)cc1,"inconclusive: 89.1 µM [inhibitor, single point]",
CC(c1ccccn1)N(CCN(C)C)C(=S)Nc1ccccc1F (configuration not stated),"inconclusive: 10 µM [inhibitor, full curve, poor fit]",
CS(=O)(=O)N(CC(=O)NCc1ccccn1)Cc1ccc(Cl)cc1,"inconclusive: 11.2 µM [inhibitor, full curve, poor fit]",
Cc1ccc(C(=O)c2cn(Cc3ccccc3)c3c(F)cc(F)cc3c2=O)cc1,,inactive: 11.7%
CCOc1cc(C(c2c(C)[nH][nH]c2=O)c2c(C)[nH][nH]c2=O)ccc1OS(=O)(=O)c1ccccc1,"inconclusive: 7.94 µM [inhibitor, full curve, poor fit]",
CCc1ccc(C=O)cc1,,inactive: 30.8%
Cc1nn(CC(O)CN2c3ccccc3Sc3ccccc32)c(C)c1Br (configuration not stated),"inconclusive: 100 µM [inhibitor, partial curve, poor fit]",
COC(=O)c1ccc2nc(NC(=O)CSCC(=O)OCC(=O)c3ccccc3)sc2c1,"inconclusive: 25.1 µM [inhibitor, partial curve, poor fit]",
O=C1C2C3CCCC3=C3CCCC3C2C(=O)N1c1cccc(Cl)c1 (configuration not stated),"inconclusive: 12.6 µM [inhibitor, partial curve, poor fit]",
Cc1ccc(C(=O)NCC(=O)OCc2nnc(-c3ccc([N+](=O)[O-])cc3)o2)s1,"inconclusive: 50.1 µM [inhibitor, partial curve]",
Cn1c(=O)c(=O)n(C)c2cc(N3CCCC3)c(NC(=O)c3ccccc3Cl)cc21,,inactive: 29.3%
